Values quoted from earlier work, collected in patent US9447447B2, “Method and apparatus for testing cardiotoxicity and evaluating cardiomyocytes” (National University Corporation Tokyo Medical and Dental …, priority 2010, dated 2016).
At least one structure is not confirmed: it was looked up by name or label, or the drawing left a doubt.

Conditions: cited from earlier work

SMILES: CC(C)NCC(O)c1ccc(NS(C)(=O)=O)cc1 (racemic) [DL-sotalol]
- cardiac toxicity as considered/known: high cardiac toxicity
